According to PubChem BioAssay AID624297 (National Center for Advancing Translational Sciences (NCATS), 2012):
Screen size: about 340,000 compounds; about 6,200 (1.8%) were called active. This list was built around the results that the source calls inconclusive (neither active nor inactive); the mix of calls is not that of the screen. Calls come from the whole dose curve; as a rule, active = well fitted activation curve with a large enough effect; inconclusive = small, poorly fitted or top-dose-only effect; inactive = no such curve, though single readings can be large or run the other way. Where the call is inconclusive, the potency comes from a doubtful curve fit.

Experiment: A quantitative high throughput screen for small molecules that induce DNA re-replication in SW480 colon adenocarcinoma cells. For re-replication activation: % of control where 0% means no effect. Note: nearly all actives have a fitted effect of over 55% in size.
Settings: Hoechst DNA content imaging, 48 h; re-replication activation: at 46.1 µM (top of the series)
In short: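 Image-based DNA-content assay: after two days of treatment, nuclei were labelled with the DNA dye Hoechst and imaged, and hits were compounds raising the count of nuclei showing high fluorescence intensity.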
Potency is the fitted concentration of half-maximal effect.

| Structure (SMILES) | Potency | re-replication activation |
| --- | --- | --- |
| CC(=O)C(C(C)=O)C(c1ccccc1)c1nc2ccccc2[nH]c1=O (stereo not drawn) | inactive |  |
| NC(=O)c1ccc(NC(=O)CSc2nc3ccccc3c(=O)n2CCCN2CCOCC2)cc1 | inconclusive: 32.6 µM [activator, single point] |  |
| CSC(=S)N/N=C(\C)c1ccc(Br)cc1 | inconclusive: 5.8 µM [activator, single point] |  |
| COc1ccccc1-c1cc(C(F)(F)F)nc(N2CCCCC2)n1 | inactive |  |
| Cc1ccc2nc(-c3ccc(NC(=O)CSCC(=O)O)cc3)sc2c1 | inactive |  |
| CC(=O)NC(c1cccs1)c1cc([N+](=O)[O-])c2cccnc2c1O (stereo not drawn) | inconclusive: 23.1 µM [activator, single point] |  |
| Fc1ccccc1CN1CCCN(C(=S)Nc2cccc(Cl)c2)C1 | inconclusive: 29.1 µM [activator, single point] |  |
| Cc1ccc(NS(=O)(=O)c2ccc(NC(=O)CN(c3cc([N+](=O)[O-])ccc3C)S(C)(=O)=O)cc2)c(C)c1 | inconclusive: 16.4 µM [activator, single point] |  |
| Cc1cc(C)c2nc(N3C(=O)C(O)=C(C(=O)c4ccco4)C3c3ccco3)sc2c1 (stereo not drawn) | active: 16.4 µM |  |
| N/C(=N\OC(=O)c1ccco1)c1ccccc1 | inconclusive: 32.6 µM [activator, partial curve, poor fit] |  |
| CCN1CCCC1CNC(=O)c1cc([N+](=O)[O-])c(N(C)C)cc1OC (stereo not drawn) | inconclusive: 6.51 µM [activator, partial curve] |  |
| CCOC(=O)c1ccc(NC(=O)CCc2ccc(CC)o2)cc1 | inconclusive: 29.1 µM [activator, partial curve, poor fit] |  |
| COCCN(C(=O)c1ccco1)c1nnc(-c2ccc(F)cc2)s1 | inconclusive: 0.0046 µM [activator, full curve, poor fit] |  |
| OC1COC(O)C(O)C1O (stereo not drawn) | inconclusive: 15.8 µM [activator, single point] |  |
| COCCCn1c(=N)c(C(=O)NCC2CCCO2)cc2c(=O)n3cccc(C)c3nc21 (stereo not drawn) | active: 6.51 µM |  |
| O=C(CN1CCC(n2nnc3cc(C(F)(F)F)ccc32)CC1)N1CCc2ccccc21 | inconclusive: 0.146 µM [activator, full curve, poor fit] |  |
| Cc1ccc(C23CC4CC(CC(CN)(C4)C2)C3)cc1 | inconclusive: 29.1 µM [activator, single point] |  |
| Cc1nnc2c3ccccc3c(-c3ccc(O)cc3)nn12 | inactive |  |
| COc1ccc(C(C(=O)NC2CCCC2)N(C(=O)c2ccoc2C)c2ccc(C)cc2)cc1 (stereo not drawn) | inconclusive: 32.6 µM [activator, partial curve, poor fit] |  |
| NCCc1c(-c2ccccc2)n(-c2ccccc2)c2ccccc12 | inconclusive: 29.1 µM [activator, single point] |  |
| CCOc1ccc(-c2[nH]ncc2-c2ccc(Cl)cc2)c(O)c1 | inconclusive: 23.1 µM [activator, single point] |  |
| CCOCCCNC(=S)NCCCNc1nc2cc3c(cc2cc1C#N)OCO3 | inconclusive: 6.51 µM [activator, single point] |  |

| Structure (SMILES) | Potency | re-replication activation |
| --- | --- | --- |
| COC(=O)c1ccc(-c2ncc[nH]2)cc1 | inconclusive: 1.16 µM [activator, partial curve, poor fit] |  |
| Cn1c(=O)oc2cc(S(=O)(=O)N3CCC(C(=O)NCCc4ccccc4)CC3)ccc21 | inconclusive: 29.1 µM [activator, single point] |  |
| Cc1cc(NS(=O)(=O)c2ccc(Nc3nc(-c4ccc(C)c(C)c4)cs3)cc2)no1 | inactive |  |
| CCOC(=O)CC(NC(=O)c1cc2ccccc2oc1=O)c1cccc([N+](=O)[O-])c1 (stereo not drawn) | inactive |  |
| COc1ccccc1/C=N/Nc1cc(C)nc(N2CCOCC2)n1 | inconclusive: 1.16 µM [activator, partial curve, poor fit] |  |
| Cn1c2c(c(O)c(-c3ccccc3)c1=O)C(=O)CC(C)(C)C2 | inactive |  |
| CCOc1ccc(CCNC(=O)C2CCCN2C(=O)OCc2ccccc2)cc1OCC (stereo not drawn) | inconclusive: 3.26 µM [activator, partial curve, poor fit] |  |
| Cc1ccccc1C(=O)N1CCN(c2ccc(NC(=S)NC(=O)c3cccs3)cc2)CC1 | inconclusive: 0.259 µM [activator, full curve, poor fit] |  |
| O=S(=O)(c1ccccc1)N1CCN(Cc2ccc(Cl)cc2)CC1 |  | inconclusive: 27.4% [activator] |
| Cc1ccc(-c2cc(C(=O)N3CCN(C(=O)c4ccco4)CC3)[nH]n2)c(C)c1 | inactive |  |
| CCCCN(CCCC)C1=Nc2ccccc2N/C1=C(/C#N)C(=O)OCC | inconclusive: 23.1 µM [activator, partial curve, poor fit] |  |
| COc1cccc(CCN2CCC(CNS(=O)(=O)c3cc(-c4cc(C)no4)ccc3OC)CC2)c1 | inconclusive: 18.4 µM [activator, single point] |  |
| COc1ccc(/C(N)=N/OC(=O)C2CCC(=O)N2S(=O)(=O)c2ccc(C)cc2)cc1 (stereo not drawn) | inconclusive: 4.11 µM [activator, partial curve, poor fit] |  |
| CNc1ccccc1C(C)(C)c1cc(C)[nH]n1 | inconclusive: 29.1 µM [activator, single point] |  |
| O=C(CN1C(=O)NC2(CCCCCCC2)C1=O)N1CCN(C(=O)c2ccco2)CC1 | inactive |  |
| CCOC(=O)C(Cc1cc(C(C)=O)ccc1OC(C)C)C(=O)OCC | inconclusive: 32.6 µM [activator, partial curve, poor fit] |  |
| CCCCn1c(SCC(=O)N2CCOCC2)nc2ccccc2c1=O | inactive |  |
| CC(=O)c1ccc(-c2ccc(C(=O)Nc3nc(-c4ccccn4)cs3)o2)cc1 | inconclusive: 29.1 µM [activator, partial curve, poor fit] |  |
| CSc1ccc(CN2CCCCCC2)cc1 | inactive |  |
| COc1cc2cc(CCCO)oc(=O)c2cc1OC | inconclusive: 1.16 µM [activator, single point] |  |
| CC1c2ccccc2N(S(=O)(=O)c2ccccc2)C1C (stereo not drawn) | inconclusive: 23.1 µM [activator, single point] |  |

Laid out differently: entries from further up.
Cc1nnc2c3ccccc3c(-c3ccc(O)cc3)nn12
  Potency: inactive
COc1ccc(C(C(=O)NC2CCCC2)N(C(=O)c2ccoc2C)c2ccc(C)cc2)cc1 (stereo not drawn)
  Potency: inconclusive: 32.6 µM [activator, partial curve, poor fit]
